These are yes or no findings as the source states them, for the method shown. Binding seen in cells or lysates may run through a third protein. Some entries that bind do so weakly or less than the wild type. Tags and fused reporters may be left off the sequences shown.
Columns and labels:
[1] = biological target: T1, PDS5A (mouse (endogenous in mESCs)) (UniProt Q6A026); assay: co-IP; WT mESC nuclear lysates (Benzonase-digested), 100 ug protein per IP, high stringency (high salt and detergent), native (uncrosslinked) conditions as per Active Motif Nuclear Complex Co-IP Kit; antibody on Protein G Dynabeads; western blot
T1 sequence: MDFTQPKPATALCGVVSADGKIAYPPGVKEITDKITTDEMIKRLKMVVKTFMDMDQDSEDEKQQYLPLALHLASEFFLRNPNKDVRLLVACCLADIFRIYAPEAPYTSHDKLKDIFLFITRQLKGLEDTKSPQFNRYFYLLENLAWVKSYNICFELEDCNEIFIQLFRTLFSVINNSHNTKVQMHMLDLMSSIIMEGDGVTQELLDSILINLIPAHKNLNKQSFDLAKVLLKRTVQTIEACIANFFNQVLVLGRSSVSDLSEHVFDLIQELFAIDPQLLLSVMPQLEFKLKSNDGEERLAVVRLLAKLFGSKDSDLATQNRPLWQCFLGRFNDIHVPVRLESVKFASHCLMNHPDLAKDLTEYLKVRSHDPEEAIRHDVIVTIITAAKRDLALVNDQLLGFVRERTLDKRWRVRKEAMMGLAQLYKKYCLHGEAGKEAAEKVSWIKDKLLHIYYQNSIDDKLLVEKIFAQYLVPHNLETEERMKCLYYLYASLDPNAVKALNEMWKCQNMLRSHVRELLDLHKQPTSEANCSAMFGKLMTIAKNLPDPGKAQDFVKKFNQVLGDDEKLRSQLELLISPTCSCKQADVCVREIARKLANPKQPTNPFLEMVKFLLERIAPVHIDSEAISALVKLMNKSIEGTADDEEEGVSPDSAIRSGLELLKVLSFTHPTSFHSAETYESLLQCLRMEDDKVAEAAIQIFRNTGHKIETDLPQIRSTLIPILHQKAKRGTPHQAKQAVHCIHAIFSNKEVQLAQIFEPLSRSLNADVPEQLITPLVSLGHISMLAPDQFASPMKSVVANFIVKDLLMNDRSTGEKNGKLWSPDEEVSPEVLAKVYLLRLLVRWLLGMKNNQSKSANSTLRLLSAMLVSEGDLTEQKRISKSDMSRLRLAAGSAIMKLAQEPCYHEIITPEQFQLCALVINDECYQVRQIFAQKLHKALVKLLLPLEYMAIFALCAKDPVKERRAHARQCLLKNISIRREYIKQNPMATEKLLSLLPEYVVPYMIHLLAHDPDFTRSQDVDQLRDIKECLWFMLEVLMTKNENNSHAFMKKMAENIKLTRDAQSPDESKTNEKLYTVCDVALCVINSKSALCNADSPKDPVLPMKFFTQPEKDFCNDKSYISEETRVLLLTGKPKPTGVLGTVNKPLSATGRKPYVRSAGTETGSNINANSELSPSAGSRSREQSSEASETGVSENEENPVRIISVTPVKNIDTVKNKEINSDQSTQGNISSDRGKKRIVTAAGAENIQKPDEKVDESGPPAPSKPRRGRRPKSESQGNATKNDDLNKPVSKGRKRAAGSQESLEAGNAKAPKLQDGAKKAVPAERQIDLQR

[2] = biological target: T2, PDS5B (mouse (endogenous in mESCs)) (UniProt Q4VA53); assay: as above
T2 sequence: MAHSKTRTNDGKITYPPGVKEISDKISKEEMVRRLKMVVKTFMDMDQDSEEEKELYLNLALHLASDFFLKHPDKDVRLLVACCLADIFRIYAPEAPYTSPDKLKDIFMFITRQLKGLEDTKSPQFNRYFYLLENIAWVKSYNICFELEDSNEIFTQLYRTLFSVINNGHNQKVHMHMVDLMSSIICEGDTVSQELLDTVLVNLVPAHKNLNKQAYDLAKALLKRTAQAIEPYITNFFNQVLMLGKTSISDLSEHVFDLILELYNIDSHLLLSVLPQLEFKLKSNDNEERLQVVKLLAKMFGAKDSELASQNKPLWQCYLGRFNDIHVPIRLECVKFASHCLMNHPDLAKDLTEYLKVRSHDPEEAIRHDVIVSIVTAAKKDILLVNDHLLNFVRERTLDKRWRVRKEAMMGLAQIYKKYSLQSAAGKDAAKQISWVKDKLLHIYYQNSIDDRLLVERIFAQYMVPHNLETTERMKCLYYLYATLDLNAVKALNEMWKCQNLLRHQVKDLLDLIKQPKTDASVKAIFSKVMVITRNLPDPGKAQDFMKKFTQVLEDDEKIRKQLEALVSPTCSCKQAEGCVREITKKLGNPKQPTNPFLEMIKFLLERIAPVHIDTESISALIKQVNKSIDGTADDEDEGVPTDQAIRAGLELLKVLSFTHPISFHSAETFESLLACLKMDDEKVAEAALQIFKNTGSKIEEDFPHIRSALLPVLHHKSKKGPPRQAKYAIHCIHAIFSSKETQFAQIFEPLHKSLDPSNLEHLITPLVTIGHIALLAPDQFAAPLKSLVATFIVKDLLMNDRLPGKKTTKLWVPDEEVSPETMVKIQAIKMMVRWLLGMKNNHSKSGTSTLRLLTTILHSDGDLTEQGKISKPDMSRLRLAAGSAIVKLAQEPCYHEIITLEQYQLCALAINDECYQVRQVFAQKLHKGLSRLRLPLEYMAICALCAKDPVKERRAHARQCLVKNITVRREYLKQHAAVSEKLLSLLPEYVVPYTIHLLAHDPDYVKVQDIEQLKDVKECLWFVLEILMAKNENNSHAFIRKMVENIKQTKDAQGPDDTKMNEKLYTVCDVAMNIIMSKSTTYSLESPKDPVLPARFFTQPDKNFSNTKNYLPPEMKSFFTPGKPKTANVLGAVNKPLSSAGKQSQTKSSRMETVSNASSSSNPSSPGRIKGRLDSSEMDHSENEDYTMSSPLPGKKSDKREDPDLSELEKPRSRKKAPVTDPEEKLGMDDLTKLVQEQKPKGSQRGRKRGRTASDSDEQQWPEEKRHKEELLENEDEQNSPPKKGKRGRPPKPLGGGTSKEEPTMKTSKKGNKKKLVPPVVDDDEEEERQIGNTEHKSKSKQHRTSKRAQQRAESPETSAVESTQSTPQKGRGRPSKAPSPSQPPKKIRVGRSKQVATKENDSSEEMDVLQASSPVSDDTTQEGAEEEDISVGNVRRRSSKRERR

[3] = biological target: T1, PDS5A (mouse (endogenous in mESCs)); assay: co-IP; WT mESC nuclear lysates (Benzonase-digested), 100 ug protein per IP, low stringency, native (uncrosslinked) conditions as per Active Motif Nuclear Complex Co-IP Kit; antibody on Protein G Dynabeads; western blot
[4] = biological target: T2, PDS5B (mouse (endogenous in mESCs)); assay: as above

Measured: binding

B1: RAD21 (protein, UniProt Q61550 1-635)
chain: MFYAHFVLSKRGPLAKIWLAAHWDKKLTKAHVFECNLESSVESIISPKVKMALRTSGHLLLGVVRIYHRKAKYLLADCNEAFIKIKMAFRPGVVDLPEENREAAYNAITLPEEFHDFDQPLPDLDDIDVAQQFSLNQSRVEEITMREEVGNISILQENDFGDFGMDDREIMREGSAFEDDDMLVSTSASNLLLEPEQSTSNLNEKMNHLEYEDQYKDDNFGEGNDGGILDDKLISNNDGGIFDDPPALSEAGVMLPEQPAHDDMDEDDNGSLGGPDSPDSVDPVEPMPTMTDQTTLVPNEEEAFALEPIDITVKETKAKRKRKLIVDSVKELDSKTIRAQLSDYSDIVTTLDLAPPTKKLMMWKETGGVEKLFFLPAQPLWNNRLLKLFTRCLTPLVPEDLRKRRKGGEADNLDEFLKEFENPEVPREEQQPQQQQPQPQRDVIDEPIIEEPSRLQDSVMEASRTTIEESAMPPPPPQGVKRKAGQIDPEPSIPPQQVEQMEIPPVELPPEEPPNICQLIPELELLPEKEKEKEKEKEEEEEEEDEDASGGDQDQEERRWNKRTQQMLHGLQRALAKTGAESISLLELCRNTNRKQAAAKFYSFLVLKKQQAIELTQEEPYSDIIATPGPRFHII
binds: [1] | [2] | [3] | [4]

B2: STAG1 (protein, UniProt Q9D3E6 1-1258)
chain: MITSELPVLQDSTNETTAHSDAGSELEETEVKGKRKRGRPGRPPSTNKKPRKSPGEKSRIEAGIRGAGRGRANGHPQQNGDGDPVTLFEVVKLGKSAMQSVVDDWIELYKQDRDIALLDLINFFIQCSGCRGTVRIEMFRNMQNAEIIRKMTEEFDEDSGDYPLTMPGPQWKKFRSNFCEFIGVLIRQCQYSIIYDEYMMDTVISLLTGLSDSQVRAFRHTSTLAAMKLMTALVNVALNLSIHQDNTQRQYEAERNKMIGKRANERLELLLQKRKELQENQDEIENMMNSIFKGIFVHRYRDAIAEIRAICIEEIGVWMKMYSDAFLNDSYLKYVGWTLHDRQGEVRLKCLKALQSLYTNRELFPKLELFTNRFKDRIVSMTLDKEYDVAVEAIRLVTLILHGSEEALSNEDCENVYHLVYSAHRPVAVAAGEFLHKKLFSRHDPQAEEALAKRRGRNSPNGNLIRMLVLFFLESELHEHAAYLVDSLWESSQELLKDWECMTELLLEEPVQGEEAMSDRQESALIELMVCTIRQAAEAHPPVGRGTGKRVLTAKERKTQIDDRNKLTEHFIITLPMLLSKYSADAEKVANLLQIPQYFDLEIYSTGRMEKHLDALLKQIKFVVEKHVESDVLEACSKTYSILCSEEYTIQNRVDIARSQLIDEFVDRFNHSVEDLLQEGEEADDDDIYNVLSTLKRLTSFHNAHDLTKWDLFGNCYRLLKTGIEHGAMPEQIVVQALQCSHYSILWQLVKITDGSPSKEDLLVLRKTVKSFLAVCQQCLSNVNTPVKEQAFMLLCDLLMIFSHQLMTGGREGLQPLVFNPDTGLQSELLSFVMDHVFIDQDEENQSMEGDEEDEANKIEALHKRRNLLAAFSKLIIYDIVDMHAAADIFKHYMKYYNDYGDIIKETLSKTRQIDKIQCAKTLILSLQQLFNELVQEQGPNLDRTSAHVSGIKELARRFALTFGLDQIKTREAVATLHKDGIEFAFKYQNQKGQEYPPPNLAFLEVLSEFSSKLLRQDKKTVHSYLEKFLTEQMMERREDVWLPLISYRNSLVTGGEDDRMSVNSGSSSSKTSSVRSKKGRPPLHRKRVEDESLDNTWLNRTDTMIQTPGPLPTPQLTSTVLRENSRPMGEQIQEPESEHGSEPDFLHNPQMQISWLGQPKLEDLNRKDRTGMNYMKVRAGVRHAVRGLMEEDAEPIFEDVMMSSRSQLEDMNEEFEDTMVIDLPPSRNRRERAELRPDFFDSAAIIEDDSGFGMPMF
binds: [1] | [2] | [3] | [4]
